The list shows a part of the results.
Columns and labels:
Test in all cases: log2 fold change, soluble protein after heating vs DMSO (PISA); higher = thermal stabilisation; K562 lysate, 10 uM; active = over 0.2 and 3.5 SD of the protein, either way, in both replicates (recomputed)
vemurafenib = compound: CCCS(=O)(=O)Nc1ccc(F)c(C(=O)c2c[nH]c3ncc(-c4ccc(Cl)cc4)cc23)c1F [vemurafenib]
Procedure, shortened: (§1)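 Following dounce homogenisation of K562 pellets in PBS pH 7.4 with 1 mM MgCl2, crude extract at 1 mg/mL protein was incubated for 30 min with 10 μM compound. Aliquots were then heated for 3 min over 48°C-58°C and pooled, NP-40 was added to 0.5% at 4°C, and soluble protein was recovered as the supernatant at 21,000xg for 90 min. Channel-sum-equalised TMTpro 16plex LC-MS/MS quantified this protein. Each value, from duplicates, is a log-two fold change in thermal stability relative to solvent controls.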

Amino acid sequences for entries named in this document (tags omitted). A change or cut given only in a name is not applied to a line headed by its entry.
UniProt Q86Y07: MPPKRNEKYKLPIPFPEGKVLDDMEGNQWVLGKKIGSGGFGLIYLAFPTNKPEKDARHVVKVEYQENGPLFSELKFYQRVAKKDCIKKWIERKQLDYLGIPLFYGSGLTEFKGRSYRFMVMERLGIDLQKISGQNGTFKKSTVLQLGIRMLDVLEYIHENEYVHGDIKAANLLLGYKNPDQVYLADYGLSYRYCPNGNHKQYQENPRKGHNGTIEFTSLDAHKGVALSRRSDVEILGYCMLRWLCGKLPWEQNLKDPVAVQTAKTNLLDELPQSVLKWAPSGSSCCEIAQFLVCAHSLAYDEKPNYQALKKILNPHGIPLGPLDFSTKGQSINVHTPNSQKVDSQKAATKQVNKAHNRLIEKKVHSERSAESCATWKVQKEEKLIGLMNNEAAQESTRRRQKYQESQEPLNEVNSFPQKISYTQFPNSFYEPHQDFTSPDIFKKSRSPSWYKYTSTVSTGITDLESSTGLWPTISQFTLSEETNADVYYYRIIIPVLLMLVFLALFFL
UniProt Q562E7: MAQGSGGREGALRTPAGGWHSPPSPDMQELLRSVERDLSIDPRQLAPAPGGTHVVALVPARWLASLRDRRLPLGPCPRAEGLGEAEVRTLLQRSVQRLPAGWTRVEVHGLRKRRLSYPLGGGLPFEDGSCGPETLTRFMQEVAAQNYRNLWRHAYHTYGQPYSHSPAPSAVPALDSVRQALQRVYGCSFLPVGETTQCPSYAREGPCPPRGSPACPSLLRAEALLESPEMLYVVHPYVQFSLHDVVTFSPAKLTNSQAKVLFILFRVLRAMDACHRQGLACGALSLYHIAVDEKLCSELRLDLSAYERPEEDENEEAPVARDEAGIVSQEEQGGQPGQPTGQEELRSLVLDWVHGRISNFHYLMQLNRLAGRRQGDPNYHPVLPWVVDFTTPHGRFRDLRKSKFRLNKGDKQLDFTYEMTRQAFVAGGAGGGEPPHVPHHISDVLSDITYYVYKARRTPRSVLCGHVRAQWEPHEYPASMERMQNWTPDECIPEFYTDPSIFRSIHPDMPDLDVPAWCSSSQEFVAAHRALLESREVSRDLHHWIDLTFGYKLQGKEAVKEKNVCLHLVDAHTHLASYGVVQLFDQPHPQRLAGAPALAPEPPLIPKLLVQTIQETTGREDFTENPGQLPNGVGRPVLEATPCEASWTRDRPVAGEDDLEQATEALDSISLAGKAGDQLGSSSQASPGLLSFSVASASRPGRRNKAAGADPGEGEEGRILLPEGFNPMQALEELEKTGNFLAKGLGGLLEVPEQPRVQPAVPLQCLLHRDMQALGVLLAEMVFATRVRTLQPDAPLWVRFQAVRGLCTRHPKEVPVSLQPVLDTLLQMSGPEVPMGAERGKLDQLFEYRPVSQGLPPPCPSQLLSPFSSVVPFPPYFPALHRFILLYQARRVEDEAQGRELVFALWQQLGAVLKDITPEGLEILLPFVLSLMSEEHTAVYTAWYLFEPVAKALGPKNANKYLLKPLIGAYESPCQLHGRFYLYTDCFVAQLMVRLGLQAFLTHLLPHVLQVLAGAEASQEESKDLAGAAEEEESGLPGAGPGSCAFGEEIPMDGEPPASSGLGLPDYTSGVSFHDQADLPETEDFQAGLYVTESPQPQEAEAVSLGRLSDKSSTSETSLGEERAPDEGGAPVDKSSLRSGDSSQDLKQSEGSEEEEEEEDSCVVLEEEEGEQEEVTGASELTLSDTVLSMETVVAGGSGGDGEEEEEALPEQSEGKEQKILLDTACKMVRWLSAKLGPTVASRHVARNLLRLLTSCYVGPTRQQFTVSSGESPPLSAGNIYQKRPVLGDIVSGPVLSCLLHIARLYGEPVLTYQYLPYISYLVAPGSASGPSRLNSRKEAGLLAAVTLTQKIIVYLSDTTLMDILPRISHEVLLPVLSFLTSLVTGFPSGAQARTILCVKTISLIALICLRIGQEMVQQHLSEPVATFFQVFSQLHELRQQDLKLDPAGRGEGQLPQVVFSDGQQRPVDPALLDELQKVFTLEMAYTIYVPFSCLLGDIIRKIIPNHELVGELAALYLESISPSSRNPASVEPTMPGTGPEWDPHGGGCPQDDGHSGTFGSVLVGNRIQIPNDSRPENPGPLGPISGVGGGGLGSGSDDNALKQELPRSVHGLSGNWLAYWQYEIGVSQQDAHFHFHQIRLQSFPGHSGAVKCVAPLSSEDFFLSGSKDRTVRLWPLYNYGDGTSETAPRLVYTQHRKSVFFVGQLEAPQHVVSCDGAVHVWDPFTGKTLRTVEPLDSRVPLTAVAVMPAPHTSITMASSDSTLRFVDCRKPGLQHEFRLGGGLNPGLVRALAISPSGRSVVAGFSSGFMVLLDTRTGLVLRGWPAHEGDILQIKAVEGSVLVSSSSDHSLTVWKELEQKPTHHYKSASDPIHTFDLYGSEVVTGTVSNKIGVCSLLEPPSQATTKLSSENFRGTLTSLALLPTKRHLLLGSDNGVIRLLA
UniProt Q3ZAQ7: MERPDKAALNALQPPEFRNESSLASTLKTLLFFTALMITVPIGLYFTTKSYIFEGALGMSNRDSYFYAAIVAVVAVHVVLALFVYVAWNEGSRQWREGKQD
UniProt Q9NQW7: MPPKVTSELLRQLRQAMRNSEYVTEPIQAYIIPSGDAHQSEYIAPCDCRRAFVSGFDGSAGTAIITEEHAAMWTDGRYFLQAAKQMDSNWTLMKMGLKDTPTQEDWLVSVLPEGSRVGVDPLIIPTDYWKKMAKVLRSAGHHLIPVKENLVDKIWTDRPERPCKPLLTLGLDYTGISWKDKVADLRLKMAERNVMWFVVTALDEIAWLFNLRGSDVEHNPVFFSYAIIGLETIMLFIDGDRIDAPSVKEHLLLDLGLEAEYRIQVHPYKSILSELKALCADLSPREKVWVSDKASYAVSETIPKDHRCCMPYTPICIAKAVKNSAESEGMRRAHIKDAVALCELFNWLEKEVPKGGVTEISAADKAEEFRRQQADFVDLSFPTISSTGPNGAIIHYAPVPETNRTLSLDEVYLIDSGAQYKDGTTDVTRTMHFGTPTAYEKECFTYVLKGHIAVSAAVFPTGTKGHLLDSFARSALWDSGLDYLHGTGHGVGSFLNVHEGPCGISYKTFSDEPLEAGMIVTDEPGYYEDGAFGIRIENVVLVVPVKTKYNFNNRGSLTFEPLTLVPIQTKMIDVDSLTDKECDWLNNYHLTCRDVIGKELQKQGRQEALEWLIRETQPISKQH
UniProt Q9NNW5: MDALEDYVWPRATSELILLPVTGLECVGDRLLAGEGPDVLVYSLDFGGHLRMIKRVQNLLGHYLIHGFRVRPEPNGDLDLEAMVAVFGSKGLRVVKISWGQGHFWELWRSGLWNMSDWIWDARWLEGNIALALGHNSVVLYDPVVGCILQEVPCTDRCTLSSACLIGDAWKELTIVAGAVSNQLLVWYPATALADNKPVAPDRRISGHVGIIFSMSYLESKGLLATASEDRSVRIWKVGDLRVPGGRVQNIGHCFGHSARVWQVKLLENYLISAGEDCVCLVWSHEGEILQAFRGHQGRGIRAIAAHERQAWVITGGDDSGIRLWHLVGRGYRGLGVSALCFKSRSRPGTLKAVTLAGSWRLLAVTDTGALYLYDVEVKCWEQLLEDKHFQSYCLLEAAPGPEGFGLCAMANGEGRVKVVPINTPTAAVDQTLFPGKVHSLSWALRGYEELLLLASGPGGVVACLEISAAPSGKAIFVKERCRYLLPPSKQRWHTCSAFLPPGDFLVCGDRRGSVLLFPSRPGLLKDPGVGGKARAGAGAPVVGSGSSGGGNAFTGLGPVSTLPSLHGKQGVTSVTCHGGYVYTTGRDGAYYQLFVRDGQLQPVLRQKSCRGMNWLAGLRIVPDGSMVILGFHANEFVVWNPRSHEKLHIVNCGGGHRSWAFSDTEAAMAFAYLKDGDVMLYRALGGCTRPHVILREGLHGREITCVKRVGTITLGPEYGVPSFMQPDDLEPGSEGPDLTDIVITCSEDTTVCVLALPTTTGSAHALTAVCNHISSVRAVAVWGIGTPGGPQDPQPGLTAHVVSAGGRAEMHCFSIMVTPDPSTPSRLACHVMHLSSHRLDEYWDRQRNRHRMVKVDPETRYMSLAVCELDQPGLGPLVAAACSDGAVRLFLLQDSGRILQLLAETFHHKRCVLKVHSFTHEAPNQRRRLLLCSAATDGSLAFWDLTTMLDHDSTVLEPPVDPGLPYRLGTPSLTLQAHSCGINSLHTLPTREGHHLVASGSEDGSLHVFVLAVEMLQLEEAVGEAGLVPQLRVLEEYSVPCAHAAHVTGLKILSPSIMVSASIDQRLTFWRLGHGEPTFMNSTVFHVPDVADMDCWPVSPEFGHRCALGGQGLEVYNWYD
UniProt Q96MX6, whole entry, looked up: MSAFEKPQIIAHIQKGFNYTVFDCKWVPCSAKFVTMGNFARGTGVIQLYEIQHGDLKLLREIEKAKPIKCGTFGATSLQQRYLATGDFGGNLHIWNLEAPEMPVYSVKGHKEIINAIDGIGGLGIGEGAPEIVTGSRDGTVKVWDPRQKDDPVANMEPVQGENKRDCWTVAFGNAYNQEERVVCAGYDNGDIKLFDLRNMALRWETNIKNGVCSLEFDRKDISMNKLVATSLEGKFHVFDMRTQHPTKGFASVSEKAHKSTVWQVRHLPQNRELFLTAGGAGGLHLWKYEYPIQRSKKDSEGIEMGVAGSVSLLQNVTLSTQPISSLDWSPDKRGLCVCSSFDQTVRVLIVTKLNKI
UniProt Q9HCS7: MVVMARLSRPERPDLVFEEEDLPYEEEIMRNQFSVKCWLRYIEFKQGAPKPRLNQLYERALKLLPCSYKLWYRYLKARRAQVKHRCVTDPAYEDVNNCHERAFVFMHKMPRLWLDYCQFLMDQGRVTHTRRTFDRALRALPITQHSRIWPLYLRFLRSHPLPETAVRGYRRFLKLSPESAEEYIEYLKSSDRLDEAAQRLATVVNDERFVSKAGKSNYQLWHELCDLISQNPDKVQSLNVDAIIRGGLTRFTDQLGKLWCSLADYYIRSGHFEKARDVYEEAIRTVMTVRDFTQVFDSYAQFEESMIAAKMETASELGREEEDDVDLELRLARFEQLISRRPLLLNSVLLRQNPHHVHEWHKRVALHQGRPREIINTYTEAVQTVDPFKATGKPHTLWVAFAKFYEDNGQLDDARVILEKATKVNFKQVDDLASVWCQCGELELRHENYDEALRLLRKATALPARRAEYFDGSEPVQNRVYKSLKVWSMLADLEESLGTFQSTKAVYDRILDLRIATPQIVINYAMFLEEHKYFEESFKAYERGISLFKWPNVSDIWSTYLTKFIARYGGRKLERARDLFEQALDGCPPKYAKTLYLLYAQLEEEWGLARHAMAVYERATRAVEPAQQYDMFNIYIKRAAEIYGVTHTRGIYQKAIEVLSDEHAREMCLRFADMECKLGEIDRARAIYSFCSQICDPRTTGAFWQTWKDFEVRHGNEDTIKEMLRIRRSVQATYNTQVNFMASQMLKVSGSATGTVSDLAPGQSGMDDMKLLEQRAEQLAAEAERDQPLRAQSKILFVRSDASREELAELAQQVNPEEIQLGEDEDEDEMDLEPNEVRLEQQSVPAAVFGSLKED
UniProt Q4G0F5, whole entry, looked up: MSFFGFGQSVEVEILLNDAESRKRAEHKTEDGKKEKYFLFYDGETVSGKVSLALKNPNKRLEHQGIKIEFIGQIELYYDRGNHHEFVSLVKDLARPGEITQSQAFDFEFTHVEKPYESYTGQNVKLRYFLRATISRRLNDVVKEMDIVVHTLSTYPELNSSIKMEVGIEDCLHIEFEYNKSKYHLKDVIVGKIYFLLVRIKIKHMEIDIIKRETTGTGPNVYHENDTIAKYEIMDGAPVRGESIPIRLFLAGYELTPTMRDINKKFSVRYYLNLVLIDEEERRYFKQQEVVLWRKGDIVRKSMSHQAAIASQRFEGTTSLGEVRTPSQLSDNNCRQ

[1] = compound: CCCS(=O)(=O)Nc1ccc(F)c(C(=O)c2c[nH]c3ncc(Cl)cc23)c1F
Procedure, shortened: as §1

barasertib = compound: CCN(CCCOc1ccc2c(Nc3cc(CC(=O)Nc4cccc(F)c4)[nH]n3)ncnc2c1)CCOP(=O)(O)O [barasertib]
Procedure, shortened: as §1

[2] = compound: CC[C@@H]1C(=O)N(C)c2cnc(Nc3ccc(C(=O)NC4CCN(C)CC4)cc3OC)nc2N1C1CCCC1
Procedure, shortened: as §1

volasertib = compound: CC[C@@H]1C(=O)N(C)c2cnc(Nc3ccc(C(=O)N[C@H]4CC[C@H](N5CCN(CC6CC6)CC5)CC4)cc3OC)nc2N1C(C)C [volasertib]
Procedure, shortened: as §1

[3] = compound: CCn1c(C(=O)N(C2CC2)C2CC2)cc2c3c(ncn3C)c(Nc3cc(C)n(C)n3)nc21
Procedure, shortened: as §1

[4] = compound: CCn1cc(-c2ccnc3[nH]c(-c4cccc(CN(C)C)c4)cc23)c(-c2ccc(NC(=O)N(C)C)cc2)n1
Procedure, shortened: as §1

[5] = compound: CN1CCC(CNc2ccc3ncc(-c4cccc(OC(F)(F)F)c4)n3n2)CC1
Procedure, shortened: as §1

saracatinib = compound: CN1CCN(CCOc2cc(OC3CCOCC3)c3c(Nc4c(Cl)ccc5c4OCO5)ncnc3c2)CC1 [saracatinib]
Procedure, shortened: as §1

sotrastaurin = compound: CN1CCN(c2nc(C3=C(c4c[nH]c5ccccc45)C(=O)NC3=O)c3ccccc3n2)CC1 [sotrastaurin]
Procedure, shortened: as §1

alvocidib = compound: CN1CC[C@H](c2c(O)cc(O)c3c(=O)cc(-c4ccccc4Cl)oc23)[C@H](O)C1 [alvocidib]
Procedure, shortened: as §1

Tubastatin A = compound: CN1CCc2c(c3ccccc3n2Cc2ccc(C(=O)NO)cc2)C1 [Tubastatin A]
Procedure, shortened: as §1

[6] = compound: CNC(=O)C1=CC=CC=C1NC2=NC(=NC=C2Cl)NC3=C(C=C(C=C3)N4CCOCC4)OC
Procedure, shortened: as §1

defactinib = compound: CNC(=O)c1ccc(Nc2ncc(C(F)(F)F)c(NCc3nccnc3N(C)S(C)(=O)=O)n2)cc1 [defactinib]
Procedure, shortened: as §1

[7] = compound: CNc1nc(-c2ccc3c(N)n[nH]c3c2)cc(N2C[C@@H](C(=O)NC3CCCCC3)CC[C@H]2C)n1
Procedure, shortened: as §1

encorafenib = compound: COC(=O)N[C@@H](C)CNc1nccc(-c2cn(C(C)C)nc2-c2cc(Cl)cc(NS(C)(=O)=O)c2F)n1 [encorafenib]
Procedure, shortened: as §1

[8] = compound: COC(=O)[C@H](CCSC)NC(=O)C1=C(C=C(C=C1)NC[C@H](CS)N)C2=CC=CC=C2
Procedure, shortened: as §1

alisertib = compound: COc1cc(Nc2ncc3c(n2)-c2ccc(Cl)cc2C(c2c(F)cccc2OC)=NC3)ccc1C(=O)O [alisertib]
Procedure, shortened: as §1

[9] = compound: COc1cc2nc(-c3cc(F)ccc3O)nc(N[C@@H]3CNC[C@H]3C(C)(C)O)c2cc1OC
Procedure, shortened: as §1

gefitinib = compound: COc1cc2ncnc(Nc3ccc(F)c(Cl)c3)c2cc1OCCCN1CCOCC1 [gefitinib]
Procedure, shortened: as §1

| Target | log2 fold change (vemurafenib) | log2 fold change [1] | log2 fold change (barasertib) | log2 fold change [2] | log2 fold change (volasertib) | log2 fold change [3] | log2 fold change [4] | log2 fold change [5] | log2 fold change (saracatinib) | log2 fold change (sotrastaurin) | log2 fold change (alvocidib) | log2 fold change (Tubastatin A) | log2 fold change [6] | log2 fold change (defactinib) | log2 fold change [7] | log2 fold change (encorafenib) | log2 fold change [8] | log2 fold change (alisertib) | log2 fold change [9] | log2 fold change (gefitinib) |
| --- | --- | --- | --- | --- | --- | --- | --- | --- | --- | --- | --- | --- | --- | --- | --- | --- | --- | --- | --- | --- |
| WNK4 (UniProt Q96J92) | inactive: -0.008 | inactive: -0.027 | inactive: 0.109 | inactive: -0.034 | inactive: -0.139 | inactive: 0.021 | inactive: 0.405 | inactive: -0.26 | inactive: 0.001 | inactive: 0.09 | inactive: 0.122 | inactive: 0.076 | inactive: 0.119 | inactive: 0.039 | inactive: -0.049 | inactive: 0.033 | inactive: 0.063 | inactive: -0.044 | inactive: 0.045 | inactive: 0.005 |
| VRK2 (UniProt Q86Y07) | inactive: 0.113 | inactive: 0.148 | inactive: 0.048 | inactive: -0.032 | inactive: -0.008 | inactive: 0.01 | inactive: -0.104 | inactive: 0.182 | inactive: -0.022 | inactive: 0.151 | active: 0.503 | inactive: -0.017 | inactive: 0.067 | inactive: 0.156 | inactive: -0.044 | inactive: -0.068 | inactive: 0.032 | inactive: -0.033 | inactive: 0.008 | inactive: -0.08 |
| WDR43 (UniProt Q15061) | inactive: -0.05 | inactive: 0.03 | inactive: 0.002 | inactive: -0.037 | inactive: 0 | inactive: 0.027 | inactive: -0.029 | inactive: 0.016 | inactive: 0.04 | inactive: 0.033 | inactive: -0.009 | inactive: -0.022 | inactive: 0.028 | inactive: 0.006 | inactive: 0.015 | inactive: 0.015 | inactive: -0.052 | inactive: -0.004 | inactive: -0.012 | inactive: -0.064 |
| WAC (UniProt Q9BTA9) | inactive: 0.018 | inactive: 0.051 | inactive: 0.077 | inactive: 0 | inactive: -0.003 | inactive: 0.051 | inactive: 0.061 | inactive: 0.024 | inactive: 0.013 | inactive: -0.002 | inactive: -0.008 | inactive: -0.035 | inactive: 0.068 | inactive: 0.013 | inactive: 0.007 | inactive: -0.006 | inactive: 0.118 | inactive: -0.019 | inactive: -0.01 | inactive: 0.009 |
| WDR81 (UniProt Q562E7) | inactive: -0.011 | inactive: -0.001 | inactive: 0.025 | inactive: -0.009 | inactive: -0.02 | inactive: -0.079 | inactive: 0.012 | inactive: -0.028 | inactive: 0.022 | inactive: -0.002 | inactive: 0.002 | inactive: -0.078 | inactive: 0.029 | inactive: 0.049 | inactive: -0.054 | inactive: 0.024 | inactive: 0.055 | inactive: 0.027 | inactive: 0.043 | inactive: -0.054 |
| WDR12 (UniProt Q9GZL7) | inactive: -0.02 | inactive: 0.001 | inactive: -0.021 | inactive: 0.005 | inactive: 0.033 | inactive: -0.018 | inactive: -0.052 | inactive: 0.047 | inactive: -0.009 | inactive: 0.009 | inactive: 0 | inactive: -0.023 | inactive: -0.01 | inactive: -0.014 | inactive: 0.008 | inactive: -0.012 | inactive: 0 | inactive: 0.024 | inactive: 0.016 | inactive: 0.023 |
| VMA21 (UniProt Q3ZAQ7) | inactive: 0.026 | inactive: -0.01 | inactive: -0.011 | inactive: -0.108 | inactive: -0.021 | inactive: 0.051 | inactive: -0.209 | inactive: -0.02 | inactive: 0.056 | inactive: -0.018 | inactive: 0.068 | inactive: -0.069 | inactive: -0.013 | inactive: 0.124 | inactive: -0.04 | inactive: 0.034 | inactive: -0.094 | inactive: 0.109 | inactive: -0.09 | inactive: -0.164 |
| XPNPEP1 isoform 3 (UniProt Q9NQW7) | inactive: 0.001 | inactive: 0.015 | inactive: 0.008 | inactive: -0.044 | inactive: -0.054 | inactive: 0.014 | inactive: -0.022 | inactive: 0.019 | inactive: -0.001 | inactive: -0.016 | inactive: -0.018 | inactive: 0.011 | inactive: 0.029 | inactive: -0.001 | inactive: -0.045 | inactive: 0.001 | active: 0.613 | inactive: -0.002 | inactive: 0.002 | inactive: 0.002 |
| VRK3 (UniProt Q8IV63) | inactive: 0.044 | inactive: 0.044 | inactive: 0.013 | inactive: 0.016 | inactive: -0.023 | inactive: 0.081 | inactive: -0.002 | inactive: 0.063 | inactive: 0.012 | inactive: -0.003 | inactive: 0.008 | inactive: -0.028 | inactive: -0.041 | inactive: -0.008 | inactive: 0.051 | inactive: 0.007 | inactive: -0.015 | inactive: -0.025 | inactive: -0.167 | inactive: 0.001 |
| WDR6 (UniProt Q9NNW5) | inactive: 0.008 | inactive: -0.007 | inactive: 0.013 | inactive: -0.006 | inactive: -0.029 | inactive: -0.009 | inactive: -0.053 | inactive: 0.033 | inactive: 0.01 | inactive: 0.116 | inactive: -0.009 | inactive: -0.077 | inactive: -0.004 | inactive: 0.003 | inactive: -0.011 | inactive: 0.015 | inactive: 0.031 | inactive: 0.005 | inactive: 0.016 | inactive: -0.013 |
| WDR92 (UniProt Q96MX6) | inactive: -0.04 | inactive: 0.011 | inactive: 0.027 | inactive: -0.079 | inactive: -0.016 | inactive: 0.04 | inactive: 0.009 | inactive: 0.046 | inactive: -0.023 | inactive: 0.009 | inactive: 0.027 | inactive: 0.015 | inactive: -0.005 | inactive: -0.022 | inactive: -0.006 | inactive: 0.007 | inactive: 0.022 | inactive: 0.051 | inactive: -0.009 | inactive: -0.014 |
| WDHD1 (UniProt O75717) | inactive: -0.03 | inactive: 0.022 | inactive: -0.02 | inactive: -0.011 | inactive: -0.026 | inactive: -0.001 | inactive: 0.078 | inactive: -0.066 | inactive: 0.024 | inactive: 0.003 | inactive: 0.042 | inactive: -0.073 | inactive: 0.004 | inactive: -0.002 | inactive: -0.011 | inactive: -0.019 | inactive: 0.098 | inactive: -0.016 | inactive: -0.003 | inactive: 0.015 |
| XAB2 (UniProt Q9HCS7) | inactive: 0.033 | inactive: 0.075 | inactive: -0.015 | inactive: 0.065 | inactive: -0.02 | inactive: 0.05 | inactive: -0.044 | inactive: 0.017 | inactive: 0.006 | inactive: 0 | inactive: -0.003 | inactive: -0.039 | inactive: 0.012 | inactive: 0.008 | inactive: 0.014 | inactive: -0.045 | inactive: 0.2 | inactive: -0.017 | inactive: 0.025 | inactive: 0.046 |
| VPS26C (UniProt O14972) | inactive: 0.069 | inactive: 0.002 | inactive: 0.006 | inactive: -0.047 | inactive: -0.028 | inactive: -0.045 | inactive: -0.209 | inactive: 0.082 | inactive: -0.037 | inactive: 0.039 | inactive: -0.129 | inactive: -0.042 | inactive: 0.014 | inactive: 0.07 | inactive: 0.007 | inactive: -0.041 | inactive: -0.077 | inactive: -0.093 | inactive: -0.024 | inactive: 0.006 |
| VPS50 (UniProt Q96JG6) | inactive: 0.003 | inactive: -0.014 | inactive: 0.043 | inactive: -0.017 | inactive: -0.006 | inactive: 0.028 | inactive: -0.023 | inactive: -0.023 | inactive: 0.018 | inactive: 0.018 | inactive: 0.027 | inactive: -0.026 | inactive: -0.012 | inactive: 0.008 | inactive: -0.032 | inactive: 0.029 | inactive: 0.038 | inactive: -0.025 | inactive: 0.025 | inactive: 0.004 |
| VPS26B (UniProt Q4G0F5) | inactive: -0.001 | inactive: 0.029 | inactive: -0.005 | inactive: -0.036 | inactive: 0.011 | inactive: -0.004 | inactive: -0.131 | inactive: 0.029 | inactive: 0.014 | inactive: 0.051 | inactive: -0.036 | inactive: -0.011 | inactive: -0.035 | inactive: -0.001 | inactive: -0.021 | inactive: 0.034 | inactive: -0.027 | inactive: -0.01 | inactive: 0.023 | inactive: -0.005 |

Quoted at random: 2 records from the list.

| Target | log2 fold change (vemurafenib) | log2 fold change [1] | log2 fold change (barasertib) | log2 fold change [2] | log2 fold change (volasertib) | log2 fold change [3] | log2 fold change [4] | log2 fold change [5] | log2 fold change (saracatinib) | log2 fold change (sotrastaurin) | log2 fold change (alvocidib) | log2 fold change (Tubastatin A) | log2 fold change [6] | log2 fold change (defactinib) | log2 fold change [7] | log2 fold change (encorafenib) | log2 fold change [8] | log2 fold change (alisertib) | log2 fold change [9] | log2 fold change (gefitinib) |
| --- | --- | --- | --- | --- | --- | --- | --- | --- | --- | --- | --- | --- | --- | --- | --- | --- | --- | --- | --- | --- |
| WDR12 (UniProt Q9GZL7) | inactive: -0.02 | inactive: 0.001 | inactive: -0.021 | inactive: 0.005 | inactive: 0.033 | inactive: -0.018 | inactive: -0.052 | inactive: 0.047 | inactive: -0.009 | inactive: 0.009 | inactive: 0 | inactive: -0.023 | inactive: -0.01 | inactive: -0.014 | inactive: 0.008 | inactive: -0.012 | inactive: 0 | inactive: 0.024 | inactive: 0.016 | inactive: 0.023 |
| WDR6 (UniProt Q9NNW5) | inactive: 0.008 | inactive: -0.007 | inactive: 0.013 | inactive: -0.006 | inactive: -0.029 | inactive: -0.009 | inactive: -0.053 | inactive: 0.033 | inactive: 0.01 | inactive: 0.116 | inactive: -0.009 | inactive: -0.077 | inactive: -0.004 | inactive: 0.003 | inactive: -0.011 | inactive: 0.015 | inactive: 0.031 | inactive: 0.005 | inactive: 0.016 | inactive: -0.013 |

From the supplement of paper PMC10849652
